From PubChem BioAssay AID1117319 (Southern Research Institute, 2015)
Hit rate of the full screen: of about 260,000 compounds, about 1,500 (0.58%) were called active. The shares of active, inactive and inconclusive entries below differ from those in the screen.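 Rule for the calls: active = inhibition above a set limit at one or more doses, reproduced on every date tested; inconclusive = results disagree between test dates, or hit never tested in dose response; inactive = the rest.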

By UniProt entry, the sequences of proteins in these tests, tags left out. Where a name states a change or a piece, a line headed by the entry shows the natural chain unless it says otherwise.
UniProt P69720: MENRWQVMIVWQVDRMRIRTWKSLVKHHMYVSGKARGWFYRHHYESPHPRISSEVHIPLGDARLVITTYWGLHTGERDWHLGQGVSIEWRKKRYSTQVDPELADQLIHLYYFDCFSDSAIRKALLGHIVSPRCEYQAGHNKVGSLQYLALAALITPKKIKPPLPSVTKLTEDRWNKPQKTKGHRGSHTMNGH
UniProt P69721: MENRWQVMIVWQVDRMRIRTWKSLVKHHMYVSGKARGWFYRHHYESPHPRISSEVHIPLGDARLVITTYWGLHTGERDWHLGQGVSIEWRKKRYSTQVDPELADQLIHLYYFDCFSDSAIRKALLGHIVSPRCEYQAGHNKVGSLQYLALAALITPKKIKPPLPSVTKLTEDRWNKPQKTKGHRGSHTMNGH
UniProt P69722: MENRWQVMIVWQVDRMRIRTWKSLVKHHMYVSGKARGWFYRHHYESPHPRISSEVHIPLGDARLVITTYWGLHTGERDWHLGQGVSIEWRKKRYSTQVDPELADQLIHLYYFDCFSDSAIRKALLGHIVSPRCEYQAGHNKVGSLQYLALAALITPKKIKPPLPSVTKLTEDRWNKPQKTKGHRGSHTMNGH
UniProt P69723: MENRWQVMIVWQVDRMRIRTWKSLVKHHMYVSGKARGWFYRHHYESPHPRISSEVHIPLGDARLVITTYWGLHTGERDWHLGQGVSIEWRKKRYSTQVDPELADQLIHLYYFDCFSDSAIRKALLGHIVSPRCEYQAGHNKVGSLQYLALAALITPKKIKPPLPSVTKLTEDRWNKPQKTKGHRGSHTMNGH
UniProt Q9HC16: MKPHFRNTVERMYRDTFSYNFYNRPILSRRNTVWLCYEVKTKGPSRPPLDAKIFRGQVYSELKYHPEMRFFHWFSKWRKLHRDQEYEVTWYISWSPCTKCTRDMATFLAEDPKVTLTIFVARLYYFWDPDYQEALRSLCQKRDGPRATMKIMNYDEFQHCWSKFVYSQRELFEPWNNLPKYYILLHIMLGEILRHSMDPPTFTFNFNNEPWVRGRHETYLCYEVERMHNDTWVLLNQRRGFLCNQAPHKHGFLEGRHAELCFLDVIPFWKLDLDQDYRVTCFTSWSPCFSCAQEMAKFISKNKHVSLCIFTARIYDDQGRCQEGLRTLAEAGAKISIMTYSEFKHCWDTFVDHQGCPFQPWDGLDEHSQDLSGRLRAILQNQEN

Molecular target: Virion infectivity factor (Human immunodeficiency virus type 1 group M subtype B (isolate BH10)) + Virion infectivity factor (Human immunodeficiency virus type 1 group M subtype B (isolate BRU/LAI)) + Virion infectivity factor (Human immunodeficiency virus type 1 group M subtype B (isolate PCV12)) + Virion infectivity factor (Human immunodeficiency virus type 1 group M subtype B (isolate HXB2)) + DNA dC->dU-editing enzyme APOBEC-3G (Homo sapiens) (UniProt P69720+P69721+P69722+P69723+Q9HC16)
Experiment: inhibitors of Vif binding to APOBEC3G peptide, primary screen, biochemical, TR-FRET, GST-Vif 1-94, biotin-A3G peptide, dose response retest (AID 1117319);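 note: Vif residues 1-94 fused to GST binding biotinylated APOBEC3G peptide 110-148; 0% = full assay without inhibitor and 100% = GST in place of GST-Vif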
Details: active compounds read high

Row | Structure (SMILES) | inhibition
1 | O=C(COc1ccc(Cl)cc1)NNC(=O)c1ccccn1 | inconclusive: 41.4%
2 | Clc1ccc(Cn2ccc(-c3ccc4c(c3)OCO4)n2)cc1Cl | inconclusive: 51.2%
3 | O=C(NNc1nc(-c2ccccc2)c2cc(Br)ccc2n1)c1ccc(S(=O)(=O)N2CCCCC2)cc1 | inconclusive: 43.6%
4 | CCCCn1c(SCC(=O)NC(=O)NCc2ccco2)nc2cc(S(N)(=O)=O)ccc21 | inconclusive: 33%
5 | O=C(NCCCCCCCCCNC(=O)C(F)(F)F)C(F)(F)F | inactive: 3.63%
6 | O=C(COC(=O)c1cnccn1)Nc1cc(S(=O)(=O)N2CCOCC2)ccc1Cl | inactive: -11.1%
7 | CC(c1ccccc1)n1cc(C(=O)NCc2cccnc2)nn1 (stereo unspecified) | inconclusive: 52.2%
8 | c1ccc(-c2ccccc2OCCn2cncn2)cc1 | inconclusive: 42.5%
9 | CCOC(=O)C1=C(C)N(c2ccc(OC)cc2)C(=O)/C1=C\c1ccc(O)c(OCC)c1 | inconclusive: 37.1%
10 | CC1(C)Cc2c(C#N)c(N3CCN(C(=O)c4ccccc4)CC3)nc(-c3ccco3)c2CS1 | inconclusive: 49.5%
11 | Cc1ccc(S(=O)(=O)NC2=NCN(CCOC(=O)c3ccc([N+](=O)[O-])cc3)CN2)cc1 | inconclusive: 42.7%
12 | COc1ccc(C2=CC3=C(Br)C(=O)C(C)(OC(=O)c4ccc(Cl)nc4)C(=O)C3=CO2)cc1 (stereo unspecified) | inconclusive: 38.3%
13 | Cc1cccc(S(=O)(=O)N(CC(=O)Nc2ccccc2C)Cc2ccco2)c1 | inconclusive: 39.8%
14 | Nc1cc(N)nc(SCC(=O)c2ccccc2)n1 | inconclusive: 43%
15 | CC1CCCCN1S(=O)(=O)c1ccc(C(=O)Nc2nnc(-c3ccccc3Cl)o2)cc1 (stereo unspecified) | inconclusive: 47.1%
16 | Cn1c(=O)c([N+](=O)[O-])c(NCCCn2ccnc2)c2ccccc21 | inconclusive: 55%
17 | CC1(C)Cc2nc(N3CCCC3)c(C#N)cc2CO1 | inconclusive: 56.5%
18 | COc1ccc(OC)c(S(=O)(=O)N2CCC(C(=O)N3CCc4ccccc4C3)CC2)c1 | inconclusive: 2.53%
19 | Cc1cc([N+](=O)[O-])cc2ncccc12 | inactive: 22.2%

Row | Structure (SMILES) | inhibition
20 | COc1ccc(Nc2nnc(Cc3ccccc3)c(=O)[nH]2)c(OC)c1 | inconclusive: 60.4%
21 | O=C(/C=C/c1ccco1)NC(=S)Nc1cc(C(F)(F)F)ccc1N1CCOCC1 | inactive: 31.6%
22 | O=c1cc(O)c2sc(Nc3ccc(F)cc3)nc2[nH]1 | inconclusive: 39.8%
23 | CCN(CC)c1ccc(C=Nc2ccccc2C)c(O)c1 | inactive: -5.2%
24 | COc1ccc(C(=O)/C=C/Nc2ccc([N+](=O)[O-])cc2C)cc1OC | inconclusive: 53.1%
25 | CCCCC(c1nnnn1CCOC)N1CCN(Cc2ccccc2)CC1 (stereo unspecified) | inconclusive: 35.2%
26 | Cn1ccnc1C(O)c1ccc(OCc2ccccc2)cc1 (stereo unspecified) | inconclusive: 46%
27 | COc1ccc(-n2c(C)cc(-c3csc(N)n3)c2C)cc1 | inconclusive: 39.1%
28 | CCOc1ccccc1C1CC(c2ccc(Br)cc2)Nc2nc(N)nn21 (stereo unspecified) | inconclusive: 35.5%
29 | Cc1cccc(C2NC(=O)c3c(sc(C)c3C)N2)c1O (stereo unspecified) | inconclusive: 36.8%
30 | Cc1nccn1CCN(C)Cc1cn(Cc2ccccc2)nc1-c1ccc2c(c1)OCO2 | inconclusive: 33.4%
31 | Cc1nn(C(C)(C)C)c(OC(=O)C2CCCC2)c1S(=O)(=O)c1ccccc1 | inconclusive: 38.7%
32 | CC(C)C(=O)N1c2ccccc2NC2=C(C(=O)CCC2)C1c1ccc(N(C)C)cc1 (stereo unspecified) | inconclusive: 38.5%
33 | CN(C)Cc1ccccc1Sc1ccc(O)cc1O | inconclusive: 48.5%
34 | O=C(CSc1ncnc2nc[nH]c12)c1ccc2ccccc2c1 | inconclusive: 42.4%
35 | Cc1ccc2cc(CCNC(=O)c3cccs3)c(=O)[nH]c2c1C | inconclusive: 36.2%
36 | COc1ccc2ccccc2c1C1CC(=O)N2CN(C)CSC2=C1C#N (stereo unspecified) | inconclusive: 48.3%
37 | CCOC(=O)c1oc2c(CN3CCN(CCO)CC3)c(O)c(CC)cc2c(=O)c1-c1nc2ccccc2s1 | inconclusive: 38.2%
38 | C[C@H]1CN([C@@H](C)CO)C(=O)CCCn2nncc2CO[C@@H]1CN(C)Cc1ccc(Cl)c(Cl)c1 | inactive: -0.91%

Row | Structure (SMILES) | inhibition
39 | CN(CC(=O)NCc1ccncc1)S(=O)(=O)c1ccccc1 | inconclusive: 33.1%
40 | COc1ccc2cc(CCNC(=O)c3cccs3)c(=O)[nH]c2c1 | inconclusive: 39.2%
41 | Cc1nc(NCCc2ccc(S(N)(=O)=O)cc2)c2c(C)c(C)sc2n1 | inconclusive: 3.44%
42 | c1ccn2c(CNc3ncnc4sccc34)nnc2c1 | inconclusive: 41.7%
43 | Cc1ccc2nc(N(CCCN(C)C)C(=O)c3ccc(Br)s3)sc2c1 | inconclusive: 47%
44 | O=C(CCc1c[nH]c2ccccc12)NCC1CCCO1 (stereo unspecified) | inconclusive: 34.3%
45 | CCOC(=O)c1oc2ccccc2c1CSc1nnnn1-c1ccc(C)cc1 | inconclusive: 46.6%
46 | CCC(CC)NC(=O)CSc1nnc(-c2ccc(OC)cc2)n1C(C)C | inconclusive: 39.6%
47 | CC(=O)c1c(C(=O)O)c2ccccc2[nH]c1=O | inconclusive: 40.8%
48 | CCCN=C1N/C(=C\c2ccco2)C(=O)N1c1ccccc1 | inconclusive: 37.2%
49 | COC(=O)CNC(c1ccccc1)c1cc(Br)ccc1NC(=O)CCN1CCOCC1 (stereo unspecified) | inconclusive: 34.1%
50 | FC(F)(F)c1cc(C(F)(F)F)c2ccc(Oc3ccccc3)nc2n1 | inconclusive: 50.7%
51 | O=C(COC(=O)c1n[nH]c(=O)c2ccccc12)c1ccc(Cl)cc1 | inactive: -6%
52 | Cc1occc1-c1nnc(SCC(=O)NCCc2ccccc2)n1Cc1ccccc1 | inconclusive: 35%
53 | CC1(C)CNC(=O)c2sc(N3CCCCC3)nc2C1 | inconclusive: 34.1%
54 | C=CCOCCN1C(=O)C2C3C=CC(C2C1=O)C1C2C(=O)N(CCOCC=C)C(=O)C2C31 (stereo unspecified) | inconclusive: 43.1%
55 | CCOc1ccc(CCNC(=O)C2CCN(S(=O)(=O)N3CCC(C)CC3)CC2)cc1OCC | inactive: -6.54%
56 | CC(C)CNc1c(N)n(CC(C)C)c(=O)[nH]c1=O | inconclusive: 56.7%
